Experimental data published in PubChem BioAssay (NCATS).
This list was built around the results that the source calls inconclusive (neither active nor inactive); the mix of calls is not that of the screen. Where a call stands in place of a potency, no number is given. Potencies of inconclusive entries are doubtful fits and often do not repeat. The source made the active and inactive calls. Calls come from the whole dose curve; as a rule, active = well fitted inhibition curve with a large enough effect; inconclusive = small, poorly fitted or top-dose-only effect; inactive = no such curve, though single readings can be large or run the other way.

biological target: Retinaldehyde dehydrogenase 3 (Homo sapiens) (UniProt P47895); assay: qHTS for Inhibitors of the Aldehyde Dehydrogenase Family (ALDH1A3) Validation screen (AID 2061312); conditions: ALDH1A3 enzyme inhibition qHTS validation, fluorescence; series mostly up to 84.7 µM; note: nearly all actives have a fitted effect of over 45% in size
Potency is the fitted concentration of half-maximal effect.

SMILES | Potency
COc1cccc(C(=O)NCCNc2nc3cc(C)cc(C)c3cc2C#N)c1 | inactive
N#Cc1cc2nc(O)c(O)nc2cc1[N+](=O)[O-] | inactive
Clc1ccc2nsnc2c1NC1=NCCN1 | inconclusive: 0.794 µM [inhibitor, full curve, poor fit]
CC(C)[C@@H]1C(=O)N(S(C)(=O)=O)[C@@H]2CCN(C(=O)/C=C/CN3CCCCC3)[C@H]21 | inactive
CCOc1ncc(S(=O)(=O)N2CCN(CC)CC2)cc1-c1nc2c(CC)n(CCOC)nc2c(=O)[nH]1 | inconclusive: 25.1 µM [inhibitor, full curve, poor fit]
COc1ccc2c(c1)CCC1C2CC[C@@]2(C)C1CC[C@@H]2NCCCCCCN1C(=O)CCC1=O (some centres not stated) | inactive
Cc1ccc([N+](=O)[O-])cc1S(=O)(=O)N(C)C | inactive
C/C(=C\c1ccc(C(=O)O)cc1)c1ccc2c(c1)C(C)(C)CCC2(C)C | inactive
CN(C)CCCOc1nn(Cc2ccccc2)c2ccccc12 | inactive
Cc1ccccc1NC(=O)Nc1ccc(CN2C(=O)N([C@@H](CC(C)C)C(=O)N[C@@H](CC(=O)O)c3ccccc3)C(=O)C2(C)C)cc1 | inactive
CCNC(=O)C1OC(n2cnc3c(N)nc(NCCc4ccc(CCC(=O)O)cc4)nc32)C(O)C1O (configuration not stated) | inconclusive: 10 µM [inhibitor, full curve, poor fit]
Cn1cnc2c(NCc3ccccc3)nc(NCCO)nc21 | inactive
CN1CCc2cc(NC(=O)Nc3cccnc3)ccc21 | inconclusive: 4.47 µM [inhibitor, partial curve]
CCCn1c(=O)c2[nH]c(-c3ccc(S(=O)(=O)O)cc3)nc2n(CCC)c1=O | inconclusive: 1.58 µM [inhibitor, full curve, poor fit]
Clc1ccc2c(c1)C(N1CCNCC1)=Nc1ccccc1O2 | inactive
C#C[C@]1(O)CC[C@H]2[C@@H]3CCC4=Cc5oncc5CC4(C)[C@H]3CCC21C (some centres not stated) | inactive

SMILES | Potency
CCCN1CCC(c2cccc(S(C)(=O)=O)c2)CC1 | inconclusive: 1.41 µM [inhibitor, full curve]
Nc1ncnc2c1ncn2C1CCCC1 | inconclusive: 2.51 µM [inhibitor, full curve]
CC(CN1c2ccccc2Sc2ccccc21)N(C)C (configuration not stated) | inconclusive: 2.24 µM [inhibitor, partial curve, poor fit]
Cc1sc(C)c(C(=O)NC2(c3ccc(C(=O)O)cc3)CC2)c1Cc1ccc(C(F)(F)F)cc1 | inconclusive: 10 µM [inhibitor, full curve, poor fit]
CC(C)n1c(=O)c(C(=O)NC2CC3CCC(C2)N3C[C@@H](O)CN(C)S(C)(=O)=O)cc2ccccc21 (some centres not stated) | inactive
Cc1cc(Cn2cnc3c2CC(C(=O)O)N(C(=O)C(c2ccccc2)c2ccccc2)C3)ccc1N(C)C (configuration not stated) | inconclusive: 7.08 µM [inhibitor, full curve, poor fit]
Cc1cccc(C#Cc2ccccc2)n1 | inconclusive: 3.16 µM [inhibitor, full curve]
COc1cc(C(=O)OCCCN2CCCN(CCCOC(=O)c3cc(OC)c(OC)c(OC)c3)CC2)cc(OC)c1OC | inconclusive: 8.91 µM [inhibitor, partial curve, poor fit]
COc1ccc(CC(=O)NCc2ccccc2-c2ccccc2C(=O)NCCc2cccnc2)cc1 | inconclusive: 4.47 µM [inhibitor, full curve, poor fit]
Oc1cc2c(cc1O)CN(C(=S)NCCc1ccc(Cl)cc1)CCC2 | inconclusive: 11.2 µM [inhibitor, partial curve, poor fit]
Nc1c2c(nc3ccccc13)CCCC2O (configuration not stated) | inactive
Nc1ncnc2c1ncn2[C@@H]1O[C@H](COP(=O)(O)OP(=O)(O)OP(=O)(O)OP(=O)(O)OC[C@@H]2O[C@H](n3cnc4c(N)ncnc43)[C@@H](O)[C@H]2O)[C@@H](O)[C@H]1O | inconclusive: 1.41 µM [inhibitor, full curve, poor fit]
Nc1ccn([C@H]2O[C@H](CO)[C@@H](O)C2(F)F)c(=O)n1 | inconclusive: 3.16 µM [inhibitor, full curve]
N[C@@H](CC(=O)O)C(=O)O | inactive
CN(C)CCN(Cc1cccs1)c1ccccn1 | inactive
CCNC(=O)C1CC(F)(c2ccc(CN3CCCC3)c(F)c2)C1 (configuration not stated) | inactive

3 structures from above, sorted by length of the SMILES, rising.
SMILES | Potency
Cc1cccc(C#Cc2ccccc2)n1 | inconclusive: 3.16 µM [inhibitor, full curve]
CCNC(=O)C1CC(F)(c2ccc(CN3CCCC3)c(F)c2)C1 (configuration not stated) | inactive
COc1cc(C(=O)OCCCN2CCCN(CCCOC(=O)c3cc(OC)c(OC)c(OC)c3)CC2)cc(OC)c1OC | inconclusive: 8.91 µM [inhibitor, partial curve, poor fit]
